# Results of single-concentration screens

Chains of the proteins cited; added tags and fusions are not shown. Residues count along the entry.
UniProt I6X8D2, whole entry: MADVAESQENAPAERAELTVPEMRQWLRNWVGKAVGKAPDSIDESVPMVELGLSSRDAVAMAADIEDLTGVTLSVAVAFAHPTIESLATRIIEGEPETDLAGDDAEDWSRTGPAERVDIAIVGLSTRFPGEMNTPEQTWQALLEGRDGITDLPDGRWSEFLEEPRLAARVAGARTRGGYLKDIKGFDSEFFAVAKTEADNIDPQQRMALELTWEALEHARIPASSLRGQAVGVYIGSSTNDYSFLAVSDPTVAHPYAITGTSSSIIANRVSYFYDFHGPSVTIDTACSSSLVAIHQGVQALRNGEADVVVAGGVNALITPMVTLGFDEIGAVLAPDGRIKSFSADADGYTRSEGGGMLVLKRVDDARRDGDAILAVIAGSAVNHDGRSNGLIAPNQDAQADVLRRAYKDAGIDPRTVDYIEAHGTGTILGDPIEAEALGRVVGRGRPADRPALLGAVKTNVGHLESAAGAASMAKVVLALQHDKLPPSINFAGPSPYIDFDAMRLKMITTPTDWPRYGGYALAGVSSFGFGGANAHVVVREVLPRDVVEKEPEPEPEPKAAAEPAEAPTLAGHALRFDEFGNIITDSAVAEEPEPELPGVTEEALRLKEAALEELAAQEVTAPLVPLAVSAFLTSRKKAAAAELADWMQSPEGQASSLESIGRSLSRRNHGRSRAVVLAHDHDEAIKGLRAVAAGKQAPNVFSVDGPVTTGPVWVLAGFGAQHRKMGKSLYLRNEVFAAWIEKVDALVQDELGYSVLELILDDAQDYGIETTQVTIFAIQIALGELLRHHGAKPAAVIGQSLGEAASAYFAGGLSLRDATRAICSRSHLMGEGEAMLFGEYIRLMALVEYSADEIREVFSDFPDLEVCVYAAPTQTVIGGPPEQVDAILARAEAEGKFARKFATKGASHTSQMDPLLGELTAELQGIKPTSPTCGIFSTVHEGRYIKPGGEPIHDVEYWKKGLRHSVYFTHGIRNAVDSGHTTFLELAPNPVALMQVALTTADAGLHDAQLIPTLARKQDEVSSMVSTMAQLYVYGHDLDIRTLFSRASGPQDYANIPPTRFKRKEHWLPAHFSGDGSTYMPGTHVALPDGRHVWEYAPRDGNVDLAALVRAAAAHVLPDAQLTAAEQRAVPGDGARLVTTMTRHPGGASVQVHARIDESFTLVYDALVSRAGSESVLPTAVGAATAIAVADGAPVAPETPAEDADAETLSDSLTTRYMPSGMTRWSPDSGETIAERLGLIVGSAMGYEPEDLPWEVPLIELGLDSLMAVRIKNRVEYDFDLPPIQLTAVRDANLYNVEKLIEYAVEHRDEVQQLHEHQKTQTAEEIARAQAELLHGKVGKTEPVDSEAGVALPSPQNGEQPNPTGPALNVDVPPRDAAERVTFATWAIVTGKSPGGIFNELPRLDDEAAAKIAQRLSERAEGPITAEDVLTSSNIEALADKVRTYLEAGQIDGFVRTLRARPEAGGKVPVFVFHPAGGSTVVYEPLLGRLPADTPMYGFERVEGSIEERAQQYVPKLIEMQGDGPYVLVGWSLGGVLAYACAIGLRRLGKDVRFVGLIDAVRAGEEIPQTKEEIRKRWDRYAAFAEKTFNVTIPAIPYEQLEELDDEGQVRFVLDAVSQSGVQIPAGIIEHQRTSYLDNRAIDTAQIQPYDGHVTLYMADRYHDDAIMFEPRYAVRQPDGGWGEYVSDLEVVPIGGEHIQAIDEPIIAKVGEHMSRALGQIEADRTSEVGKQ
UniProt Q4DA54, 1-478: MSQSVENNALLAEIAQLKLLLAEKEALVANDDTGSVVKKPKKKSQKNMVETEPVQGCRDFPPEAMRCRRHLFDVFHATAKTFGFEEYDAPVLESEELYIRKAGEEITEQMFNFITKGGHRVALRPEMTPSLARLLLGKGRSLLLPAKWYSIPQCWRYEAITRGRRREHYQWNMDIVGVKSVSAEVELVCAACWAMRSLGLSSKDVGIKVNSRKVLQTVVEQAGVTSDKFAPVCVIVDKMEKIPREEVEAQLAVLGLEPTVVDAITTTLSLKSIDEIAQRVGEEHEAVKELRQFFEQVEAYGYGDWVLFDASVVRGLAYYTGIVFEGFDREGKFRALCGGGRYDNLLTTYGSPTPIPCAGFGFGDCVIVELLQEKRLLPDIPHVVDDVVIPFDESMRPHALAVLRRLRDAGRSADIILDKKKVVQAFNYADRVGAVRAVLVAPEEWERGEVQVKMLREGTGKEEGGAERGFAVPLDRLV
UniProt A4I591, 1-473: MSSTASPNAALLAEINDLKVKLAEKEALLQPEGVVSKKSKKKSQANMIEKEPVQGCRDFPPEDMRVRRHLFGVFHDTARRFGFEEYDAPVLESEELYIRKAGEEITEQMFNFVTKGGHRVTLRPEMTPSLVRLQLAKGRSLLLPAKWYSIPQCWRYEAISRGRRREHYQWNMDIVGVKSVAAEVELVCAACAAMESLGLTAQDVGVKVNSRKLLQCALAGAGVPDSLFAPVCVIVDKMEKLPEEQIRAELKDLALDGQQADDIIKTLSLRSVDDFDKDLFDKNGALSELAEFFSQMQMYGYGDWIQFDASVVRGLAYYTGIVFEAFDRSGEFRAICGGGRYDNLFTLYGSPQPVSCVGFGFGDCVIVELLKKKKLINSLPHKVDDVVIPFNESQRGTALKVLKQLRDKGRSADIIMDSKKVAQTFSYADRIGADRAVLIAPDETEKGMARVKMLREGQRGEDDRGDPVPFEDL

From ChEMBL document CHEMBL3988442, “University of Dundee, Small-Polar-MMV Screening Library” (2021).

Values are the deposited “Percent Effect”, in %.
How 0% and 100% were set is not recorded. Most values in the screen are low, and negative values occur.
The compounds are a random part of those screened.

Pks13 thioesterase: 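Polyketide synthase Pks13, Mycobacterium tuberculosis (UniProt I6X8D2). Enzyme assay of the thioesterase domain of polyketide synthase 13; the read-out is not stated. Concentration: 30 µM. Higher reads as stronger inhibition (inferred from which compounds were picked for retests). About 67,000 compounds were tested under these conditions; 0.46% (about 300) showed 50% or more at least once.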
TcHisRS: 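Histidine-tRNA ligase, Trypanosoma cruzi CL Brener (UniProt Q4DA54). Enzyme assay of histidyl-tRNA synthetase; the read-out is not stated. Compounds at 30 µM. Higher reads as stronger inhibition (inferred: compounds with an IC50 in retests scored well above the rest). About 69,000 compounds were tested under these conditions; 0.045% (about 31) showed 50% or more at least once.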
LiHisRS: 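Enzyme assay of histidyl-tRNA synthetase; the read-out is not stated. Target: Histidine-tRNA ligase, Leishmania infantum (UniProt A4I591). Concentration: 30 µM. The record gives no direction; compounds that gave an IC50 in retests scored well above the rest, so higher reads as stronger inhibition. The assay is labelled LdHisRS but filed under L. infantum. Of about 69,000 compounds tested this way, about 410 (0.6%) reached 50% or more in at least one test.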

structure: CCc1nnc(C(C)N2CCCN(C(=O)OCC(C)C)CC2)o1 (configuration not stated)
Pks13 thioesterase: 6.206
TcHisRS: -1.657
LiHisRS: 8.333

structure: CN(C)c1nccc(CNS(=O)(=O)c2ccc(F)c(Cl)c2)n1
Pks13 thioesterase: 2.936
TcHisRS: 7.097
LiHisRS: 1.01

structure: Cc1csc(CNC(=O)NC(C)c2ccc3c(c2)OCCO3)n1 (configuration not stated)
Pks13 thioesterase: 0.7405
TcHisRS: 0.4425
LiHisRS: 7.965

structure: CCSc1nc2ccccc2c(=O)n1OCC(=O)OC
Pks13 thioesterase: 11.67
TcHisRS: 3.659
LiHisRS: 7.895

structure: O=C(C1CCOC1)N1CCC2(CC1)COCCN(Cc1ccncc1)C2 (configuration not stated)
Pks13 thioesterase: -1.048
TcHisRS: 7.143
LiHisRS: 7

structure: Cc1cccc(CN2CCCC(O)(CNCCc3c[nH]cn3)C2=O)c1 (configuration not stated)
Pks13 thioesterase: 10.09
TcHisRS: 12.04
LiHisRS: 22.58

structure: CCc1ccc(C2COCCN2C(=O)Nc2ccc(C#N)cc2)o1 (configuration not stated)
Pks13 thioesterase: -28.49
TcHisRS: 0
LiHisRS: 8.333

structure: Cc1cc2nc(CO[C@H]3CN(C4CCC4)C[C@H]3F)[nH]c2cc1C
Pks13 thioesterase: -13.47
TcHisRS: 9.783
LiHisRS: 9.459

structure: Cc1nn(CCC#N)c(C)c1CCC(=O)N(C)Cc1ccc(F)cc1F
Pks13 thioesterase: -6.309
TcHisRS: 7.216
LiHisRS: 8.571

structure: O=C(NC1CCN(C2CC2)CC1)N1CCN(c2cnccn2)CC1
Pks13 thioesterase: -17.82
TcHisRS: 5.263
LiHisRS: 9.091

structure: CN1CCCN(S(=O)(=O)c2cn(C)cn2)c2cc(Cl)ccc21
Pks13 thioesterase: -4.472
TcHisRS: 4.762
LiHisRS: 8.219

structure: N#Cc1ccc(CN2CCCN(C(=O)CCn3cncn3)CC2)cc1
Pks13 thioesterase: -29.09
TcHisRS: 4.217
LiHisRS: 26.37

structure: CCCS(=O)(=O)NCC1CCOc2ccccc2C1 (configuration not stated)
Pks13 thioesterase: 16.83
TcHisRS: 5.021
LiHisRS: 4.717

structure: Cc1nccn1C1CCCN(C(=O)c2ccc3c(c2)OCCCO3)C1 (configuration not stated)
Pks13 thioesterase: 8.175
TcHisRS: 2.312
LiHisRS: 11.61

structure: C[C@H]1C[C@H]2CN(C(=O)C3=CCCC3)CC[C@H]2O1
Pks13 thioesterase: -26.4
TcHisRS: 5.825
LiHisRS: 23.3

structure: NC(=O)CSCCC(=O)N1CCCC1c1ccsc1 (configuration not stated)
Pks13 thioesterase: -10.62
TcHisRS: 3.252
LiHisRS: 14.42

structure: CSC(C)C(=O)N1CCCN(c2ncccc2C#N)CC1 (configuration not stated)
Pks13 thioesterase: 4.342
TcHisRS: 4.046
LiHisRS: 8.036

structure: Cc1ccc2c(c1)SCC(=O)N2Cc1noc(C2CC2)n1
Pks13 thioesterase: -32.82
TcHisRS: 2.488
LiHisRS: 15.38

structure: COc1cc(-n2ccnc2-c2ccc(C(=O)O)s2)ccc1NC(C)=O
Pks13 thioesterase: -1.499
TcHisRS: 9.013
LiHisRS: -9.836

Repeated from the top, 2 entries:

- CCc1nnc(C(C)N2CCCN(C(=O)OCC(C)C)CC2)o1 (configuration not stated) | Pks13 thioesterase: 6.206%; TcHisRS: -1.657%; LiHisRS: 8.333%
- CN(C)c1nccc(CNS(=O)(=O)c2ccc(F)c(Cl)c2)n1 | Pks13 thioesterase: 2.936%; TcHisRS: 7.097%; LiHisRS: 1.01%